Data from the primary screen of doi:10.1371/journal.pone.0140310, rounded.

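The test systems are human melanoma cell lines, treated with a pair of drugs for 72 h and then stained and imaged. The read-out is the fraction of cleaved-PARP-positive nuclei, in % of that fraction in the DMSO control; 200 means twice the control level of this apoptosis marker. Every drug was used at one fixed concentration, the higher of two screened. The file gives one value for each pair and line, without errors, so small differences may be noise. The marker varies much from line to line, for technical or biological reasons.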
An unselected part of the screen is shown.
A dash means that no value is listed here.

Drugs:
stibogluconate, 10 µM: O=C(O)[C@@H]1[O][Sb](=[O])([O][Sb]2(=[O])[O][C@H]([C@H](O)CO)[C@H](O)[C@H](C(=O)O)[O]2)[O][C@H]([C@H](O)CO)[C@@H]1O (stereo partly drawn)
BMS-536924, 1 µM: Cc1cc(N2CCOCC2)cc2[nH]c(-c3c(NC[C@@H](O)c4cccc(Cl)c4)cc[nH]c3=O)nc12
XAV939, 10 µM: Oc1nc(-c2ccc(C(F)(F)F)cc2)nc2c1CSCC2
lestaurtinib, 0.02 µM: C[C@]12O[C@H](C[C@]1(O)CO)n1c3ccccc3c3c4c(c5c6ccccc6n2c5c31)CNC4=O
veliparib, 7 µM: C[C@]1(c2nc3c(C(N)=O)cccc3[nH]2)CCCN1
OSU-03012, 5 µM: NCC(=O)Nc1ccc(-n2nc(C(F)(F)F)cc2-c2ccc3c(ccc4ccccc43)c2)cc1
gemcitabine, 0.002 µM: Nc1ccn([C@@H]2O[C@H](CO)[C@@H](O)C2(F)F)c(=O)n1
SU6656, 2 µM: CN(C)S(=O)(=O)c1ccc2c(c1)/C(=C/c1cc3c([nH]1)CCCC3)C(=O)N2

Drugs,A375,SK-MEL-5,WM1745,RPMI-7951,LB2518-MEL,WM451Lu,IST-MEL1,SK-MEL-2,WM3526,WM115,COLO 800,UACC-257
BMS-536924 + veliparib,-,87.0,126,87.0,-,27.8,75.9,-,159,63.5,286,101
OSU-03012 + SU6656,-,278,162,89.6,290,164,257,469,912,210,398,123
SU6656 + veliparib,-,154,129,70.3,136,159,89.9,68.6,197,755,206,46.6
veliparib + XAV939,60.7,44.1,131,174,81.9,80.6,58.4,133,82.3,109,76.9,17.7
stibogluconate + OSU-03012,-,297,76.5,71.9,57.8,80.8,70.3,794,531,64.5,129,117
BMS-536924 + stibogluconate,-,222,135,176,92.5,132,40.4,107,97.5,124,259,95.3
XAV939 + lestaurtinib,202,175,-,71.3,323,105,216,65.1,125,135,75.3,102
gemcitabine + BMS-536924,-,49.1,149,57.1,164,60.2,267,105,94.5,117,307,101
lestaurtinib + BMS-536924,-,249,126,162,195,88.2,31.2,222,347,254,195,150
gemcitabine + veliparib,128,97.4,180,203,167,131,126,178,100,55.2,142,123
OSU-03012 + BMS-536924,-,1210,151,120,248,140,351,537,519,104,214,37.8
gemcitabine + SU6656,-,105,188,562,208,346,384,74.0,111,257,153,82.4
XAV939 + SU6656,57.9,53.3,253,127,142,69.7,74.2,93.4,86.0,70.6,62.4,15.9
BMS-536924 + XAV939,93.1,184,215,81.7,-,101,242,185,74.0,171,556,19.1
SU6656 + lestaurtinib,-,211,120,215,286,76.4,88.5,140,368,126,230,153
stibogluconate + lestaurtinib,66.9,227,185,99.6,246,40.3,110,65.2,110,275,95.8,106
lestaurtinib + gemcitabine,125,164,191,479,411,446,385,132,97.5,270,404,17.7
stibogluconate + veliparib,160,131,102,89.4,79.1,95.7,159,85.5,48.2,147,77.1,27.8
stibogluconate + SU6656,-,163,139,163,126,204,88.7,91.0,86.1,194,93.8,55.1
gemcitabine + stibogluconate,61.6,201,224,182,234,320,193,152,86.4,140,265,32.1
BMS-536924 + SU6656,-,251,189,71.5,75.8,207,126,82.5,211,237,62.5,42.7
XAV939 + stibogluconate,79.8,170,-,80.2,190,137,40.9,90.2,105,122,134,36.3
XAV939 + gemcitabine,114,51.9,-,144,91.8,374,349,151,88.0,108,146,97.7
veliparib + lestaurtinib,105,103,253,133,105,201,199,152,145,444,150,86.2
OSU-03012 + gemcitabine,-,396,205,273,110,296,221,670,756,132,359,78.8
veliparib + OSU-03012,-,662,103,41.8,74.7,37.5,85.3,527,297,78.9,111,39.2

The last 2 entries again:

Drugs,A375,SK-MEL-5,WM1745,RPMI-7951,LB2518-MEL,WM451Lu,IST-MEL1,SK-MEL-2,WM3526,WM115,COLO 800,UACC-257
OSU-03012 + gemcitabine,-,396,205,273,110,296,221,670,756,132,359,78.8
veliparib + OSU-03012,-,662,103,41.8,74.7,37.5,85.3,527,297,78.9,111,39.2